Values quoted from earlier work, collected in patent publication US10898873B2, “Lecithin compositions and methods of making and using such lecithin compositions” (Archer Daniels Midland Company, priority 2015, dated 2021).
For at least one compound, name, drawing or mass did not settle the structure.

Details: cited from earlier work

**Q.** With `C[S+](C)[O-]` [DMSO] as the molecule, how does the “Dielectric Constant (∈)” value read?
**A.** The value was 50.
